# Results of single-concentration screens

The values are deposited in ChEMBL (CHEMBL3988442, “University of Dundee, Small-Polar-MMV Screening Library” (2021)).

A: 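Assay of Toxoplasma gondii numbers, read through their beta-galactosidase reporter with a colour substrate. Concentration: 10 µM. Higher reads as fewer parasites (inferred from which compounds were picked for retests). Size under these conditions: about 67,000 compounds, about 260 of them at 50% or above in at least one test.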
B: 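Whole-parasite assay of Trypanosoma brucei over 72 hours; the read-out is not stated. Concentration: 30 µM. Higher reads as stronger inhibition (inferred: compounds with an IC50 in retests scored well above the rest). Values scatter widely below zero; nearly all retest evidence comes from the higher of the two concentrations used. Of about 64,000 compounds tested this way, about 940 (1.5%) reached 50% or more in at least one test.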
C: 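Cell assay of Leishmania donovani living inside macrophages; the read-out is not stated. Tested at 30 µM. Higher reads as stronger inhibition (inferred: compounds with an IC50 in retests scored well above the rest). Size under these conditions: about 69,000 compounds, about 1,000 of them at 50% or above in at least one test.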

The filed quantity is “Percent Effect” (%).
How 0% and 100% were set is not recorded. Most values in the screen are low, and negative values occur.
Compounds were drawn at random from those tested, without regard to their results.
Two or more numbers in one place are separate tests of the same structure; such repeats can differ widely.

Result for c1nc(NCC2(N3CCOCC3)CCSC2)c2sccc2n1 (stereo unspecified) was A: -3.19%; B: -10.41%; C: 4.224%.
Result for O=C(NC1CC1)c1ccnc(-c2cc(NCCO)nc3[nH]ccc23)c1 was A: 1.208%; B: 26.66%; C: 31.23%.
Result for CC(C)c1noc(C2CCCN2C(=O)Cc2cn3ccsc3n2)n1 (stereo unspecified) was A: 22.44%; B: -53.34%; C: 16.61%.
Result for CCC(=O)Nc1ccc(F)c(S(=O)(=O)NC(C)(C)C)c1 was A: -39.47%; B: -21.9%; C: -0.8781%.
Result for O=c1c2cccc(Cl)c2ncn1C1CCNC1 (stereo unspecified) was A: -19.36%; B: -16.05%; C: 10.43%.
Result for Cc1ccc(C)c(OCCN(C)C(=O)CCc2cn[nH]c2)c1 was A: 8.705%; B: -62.32%; C: -8.63%.
Result for Cn1cnc2c1C(COCc1ccccc1)N(Cc1ccccn1)CC2.O=C(O)C(F)(F)F.O=C(O)C(F)(F)F (stereo unspecified) was A: 1.108%; B: 16.6%; C: 13.57%.
Result for [H][C@@]12CN(C(=O)NC)C[C@]1(C(=O)NCC1CC1)CCCN2c1ncccn1 was A: -22.15%; B: -79.81%; C: 18.69%.
Result for CN(C)C(=O)CN1C(=O)CCC12CCN(Cc1cccn1C)CC2.O=C(O)C(F)(F)F was A: 6.125%; B: -2.653%; C: 32.74%.
Result for Cc1cc(C)cc(CN2CCN(C(=O)COCC3CCCO3)CC2=O)c1 (stereo unspecified) was A: -2.133%; B: 11.65%; C: 35.46%.
Result for CC(C)SCCNC(=O)c1cccc2ccnn12 was A: -1.021%; C: 20.19%.
Result for CCCc1noc(CN2CCCC2c2c(C)nn(C)c2OC)n1 (stereo unspecified) was A: -3.291%; B: -3.98%; C: -20.13%.
Result for Cc1noc(-c2ccnc(Oc3ccc(CN4CCCC4)cc3C)c2)n1 was A: -43.17%; B: 27.22%; C: 25.39%.
Result for CCc1nc(CSCc2csc(CS(C)(=O)=O)n2)cs1 was A: 12.16%; B: -13.62%; C: -15.68%.
Result for Cc1cn2c(n1)C(CNCC1=Cc3ccccc3OC1)CCC2 (stereo unspecified) was A: -4.432%; B: 49.61%; C: 8.139%.
Result for CCS(=O)(=O)N1CCc2c(COC)cncc2C1 was A: 0.3741%; B: -48.89%; C: 14.45%.
Result for COc1ccc(OCCC(=O)N2CCCC2Cn2cccn2)cc1 (stereo unspecified) was A: 10.74%; C: 22.51%.
Result for O=C(c1cnc(C2CC2)s1)N1CCCC(n2cccn2)C1 (stereo unspecified) was A: 2.125%; B: -28.66%; C: 4.392%.
Result for c1cc(CN2CCCC2c2noc(C3CC3)n2)on1 (stereo unspecified) was A: -6.996%; B: -9.662%; C: 4.82%.
Result for CC(Cc1c(F)cccc1F)NC(=O)CSCC(N)=O (stereo unspecified) was A: 17.55%; B: -63.98%; C: 11.03%.
Result for O=C(C1CCCO1)N1CCc2onc(-c3ccc(Cl)cc3)c2C1 (stereo unspecified) was A: -8.011%; B: -24.04%; C: -19.46%.
Result for c1cc(-c2noc(-c3cc(C4CC4)[nH]n3)n2)cc(N2CCCCC2)n1 was A: 2.704%; B: -114%; C: 28.87%.
Result for Cc1nnc2n1CCN(C(C(N)=O)c1ccc(F)cc1)C2 (stereo unspecified) was A: 27.57%; B: 0.1357%; C: 10.69%.
Result for Cl.NCCc1cc(N2CCOCC2)nc(NC2CC2)n1 was A: 4.254%; B: -23%; C: 2.19%.
Result for CC(=O)N1CCCN(c2cc(C3CN(C)CCO3)nc(C)n2)CC1 (stereo unspecified) was A: -23.68%; B: -13.01%; C: 13.29%.
Result for CC(C)CN1CC(C(=O)NCCNc2ncccn2)CC1=O (stereo unspecified) was A: 0.43%; B: -13.46%; C: 7.647%.
Result for Cn1c(SCC(O)COCc2ccc(Cl)cc2)nnc1C1CC1 (stereo unspecified) was A: 8.221%; B: -19.35%; C: -18.27%.
Result for Cn1cnc(S(=O)(=O)NCC(O)c2ccc3c(c2)CCO3)c1 (stereo unspecified) was A: -2.542%; B: -2.754%; C: -36.3%.
Result for O=C(O)C(F)(F)F.O=C(O)C(F)(F)F.O=C(c1ccco1)N1CC[C@@H](N2CCOCC2)[C@@H]1Cc1ccncc1 was A: 11.99%; B: -20.74%; C: 14.42%.
Result for COc1cccc(CN2CCC(c3nnc(-c4cnc(C)cn4)o3)C2)c1 (stereo unspecified) was A: -7.076%; B: -2.955%; C: 18.8% & 7.773%.
Result for CCOCCN1CCN(Cc2cccc(C(=O)N(C)C)c2)CC1CC (stereo unspecified) was A: 9.022%; B: -2.163%; C: 24.92%.
Result for N#CC1(NC(=O)COC(=O)Cc2cc(Cl)c3c(c2)OCCO3)CCCC1 was A: 6.628%; B: 15.57%; C: -8.959%.
Result for Cc1ccnc(C(NC(=O)c2ccc(O)nc2C)C2CC2)n1 (stereo unspecified) was A: 7.042%; B: -32.32%; C: 17.78%.
Result for Cn1cc(CN2CCn3cc(CNC(=O)c4cccn4C)nc3C2)cn1.O=C(O)C(F)(F)F was A: -0.9429%; B: 21.81%; C: 30.84%.
Result for COc1c(CNC2CCN(C(=O)C(C)C)CC2)c(C(C)C)nn1C was A: 28.99%; B: -8.795%; C: -3.486%.
Result for Cn1cccc1C(=O)Nc1cc(F)ccc1OCC1CCCO1 (stereo unspecified) was A: 2.647%; B: 17.9%; C: 37.92%.

The first 2 entries again:

With c1nc(NCC2(N3CCOCC3)CCSC2)c2sccc2n1 (stereo unspecified) the screen gave A: -3.19%; B: -10.41%; C: 4.224%.
With O=C(NC1CC1)c1ccnc(-c2cc(NCCO)nc3[nH]ccc23)c1 the screen gave A: 1.208%; B: 26.66%; C: 31.23%.